According to patent US9840640B2, “Article having antifouling properties for aquatic and particularly sea use” (priority 2008, dated 2017):

Tests used:
[1] = Catalyst activity test: crosslinking of α,ω-dihydroxylated oil 48V100 with ethyl silicate; conditions: for Hard/liquid after 24 h: 1.24 mmol catalyst
[2] = Tack Free Time and pot-life of topcoat formulations; conditions: 3.34 mmol catalyst in topcoat Formulation 1 base
[3] = text summary of comparative test 2

CCOC(=O)C=C(C)[O][Fe]([O]C(C)=CC(=O)OCC)[O]C(C)=CC(=O)OCC [Catalyst (2), [Fe(EAA)3]]
Hard/liquid after 24 h [1]: hard

C/C(=C/C(=O)OCC(C)C)[CH2][Fe]([O]/C(C)=C/C(=O)OCC(C)C)[O]/C(C)=C/C(=O)OCC(C)C [Catalyst (4), [Fe(iBu-AA)3]]
Pot-life [2]: 45 min
Tack Free Time (time necessary to obtain a dry surface) [2]: 45 min

C/C(=C/C(=O)OC(C)(C)C)[CH2][Fe]([O]/C(C)=C/C(=O)OC(C)(C)C)[O]/C(C)=C/C(=O)OC(C)(C)C [Catalyst (5), [Fe(tBu-AA)3]]
Pot-life [2]: 20 min
Tack Free Time (time necessary to obtain a dry surface) [2]: 10 min

CCCCC(CC)C(=O)[O-].CCCCC(CC)C(=O)[O-].CCOC(=O)C=C(C)[O-].[Fe+3] (centres unmarked) [Catalyst (7), [Fe(EAA) (2-ethylhexanoato)2]]
Hard/liquid after 24 h [1]: hard

CC(=O)/C=C(/C)[O-].CC(=O)/C=C(/C)[O-].CC(=O)/C=C(/C)[O-].[Fe+3] [Comparative 2, Fe(acac)3]
Hard/liquid after 24 h [1]: hard
crosslinking time [1, 3]: more than 7 hours
tack time [1, 3]: more than 6 hours

[Fe(EAA)2 (2-ethylhexanoato)] [Catalyst (6)]
Hard/liquid after 24 h [1]: hard

tetrabutyldistannoxane dilaurate [Comparative 1]
Hard/liquid after 24 h [1]: hard
